The list shows a part of the results.
Legend:
Experiment in all cases: log2 fold change, soluble protein after heating vs DMSO (PISA); higher = thermal stabilisation; K562 cells, 10 uM, 30 min; active = over 0.2 and 3.5 SD of the protein, either way, in both replicates (recomputed)
idasanutlin = compound: COc1cc(C(=O)O)ccc1NC(=O)[C@@H]1N[C@@H](CC(C)(C)C)[C@](C#N)(c2ccc(Cl)cc2F)[C@H]1c1cccc(Cl)c1F [idasanutlin]
Procedure, shortened: (§1)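 Aliquots of K562 cells (2×10^6 cells/mL) treated with 10 μM compound for 30 min were heated for 3 min over 48°C-58°C. After pooling and extraction in PBS with 0.5% NP-40 at 4°C, soluble protein from a 21,000xg, 90 min spin was quantified by TMTpro 16plex LC-MS/MS with channel sums equalised. Thermal stability is expressed against control samples, from duplicates, as a log2 fold change.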

By UniProt entry, the sequences of proteins in these tests, tags left out. Where a name states a change or a piece, a line headed by the entry shows the natural chain unless it says otherwise.
UniProt Q9UJV9: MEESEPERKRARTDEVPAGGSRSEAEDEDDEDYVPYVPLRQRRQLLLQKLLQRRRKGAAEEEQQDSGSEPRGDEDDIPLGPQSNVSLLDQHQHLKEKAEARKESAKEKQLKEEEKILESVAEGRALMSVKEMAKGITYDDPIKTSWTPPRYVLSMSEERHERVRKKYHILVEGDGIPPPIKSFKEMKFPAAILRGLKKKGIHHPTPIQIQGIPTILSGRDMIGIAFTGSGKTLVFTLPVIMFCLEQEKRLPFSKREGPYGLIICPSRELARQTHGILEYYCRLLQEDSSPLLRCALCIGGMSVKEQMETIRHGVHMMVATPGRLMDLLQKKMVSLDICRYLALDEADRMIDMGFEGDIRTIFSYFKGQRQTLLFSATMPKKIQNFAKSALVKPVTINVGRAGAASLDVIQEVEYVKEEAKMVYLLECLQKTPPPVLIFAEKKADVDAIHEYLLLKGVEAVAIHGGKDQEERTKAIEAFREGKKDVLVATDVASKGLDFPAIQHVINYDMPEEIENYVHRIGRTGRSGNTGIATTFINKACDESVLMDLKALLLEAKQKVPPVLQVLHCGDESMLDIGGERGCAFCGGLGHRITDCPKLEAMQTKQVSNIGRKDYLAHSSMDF
UniProt Q8TDJ6, whole entry, looked up: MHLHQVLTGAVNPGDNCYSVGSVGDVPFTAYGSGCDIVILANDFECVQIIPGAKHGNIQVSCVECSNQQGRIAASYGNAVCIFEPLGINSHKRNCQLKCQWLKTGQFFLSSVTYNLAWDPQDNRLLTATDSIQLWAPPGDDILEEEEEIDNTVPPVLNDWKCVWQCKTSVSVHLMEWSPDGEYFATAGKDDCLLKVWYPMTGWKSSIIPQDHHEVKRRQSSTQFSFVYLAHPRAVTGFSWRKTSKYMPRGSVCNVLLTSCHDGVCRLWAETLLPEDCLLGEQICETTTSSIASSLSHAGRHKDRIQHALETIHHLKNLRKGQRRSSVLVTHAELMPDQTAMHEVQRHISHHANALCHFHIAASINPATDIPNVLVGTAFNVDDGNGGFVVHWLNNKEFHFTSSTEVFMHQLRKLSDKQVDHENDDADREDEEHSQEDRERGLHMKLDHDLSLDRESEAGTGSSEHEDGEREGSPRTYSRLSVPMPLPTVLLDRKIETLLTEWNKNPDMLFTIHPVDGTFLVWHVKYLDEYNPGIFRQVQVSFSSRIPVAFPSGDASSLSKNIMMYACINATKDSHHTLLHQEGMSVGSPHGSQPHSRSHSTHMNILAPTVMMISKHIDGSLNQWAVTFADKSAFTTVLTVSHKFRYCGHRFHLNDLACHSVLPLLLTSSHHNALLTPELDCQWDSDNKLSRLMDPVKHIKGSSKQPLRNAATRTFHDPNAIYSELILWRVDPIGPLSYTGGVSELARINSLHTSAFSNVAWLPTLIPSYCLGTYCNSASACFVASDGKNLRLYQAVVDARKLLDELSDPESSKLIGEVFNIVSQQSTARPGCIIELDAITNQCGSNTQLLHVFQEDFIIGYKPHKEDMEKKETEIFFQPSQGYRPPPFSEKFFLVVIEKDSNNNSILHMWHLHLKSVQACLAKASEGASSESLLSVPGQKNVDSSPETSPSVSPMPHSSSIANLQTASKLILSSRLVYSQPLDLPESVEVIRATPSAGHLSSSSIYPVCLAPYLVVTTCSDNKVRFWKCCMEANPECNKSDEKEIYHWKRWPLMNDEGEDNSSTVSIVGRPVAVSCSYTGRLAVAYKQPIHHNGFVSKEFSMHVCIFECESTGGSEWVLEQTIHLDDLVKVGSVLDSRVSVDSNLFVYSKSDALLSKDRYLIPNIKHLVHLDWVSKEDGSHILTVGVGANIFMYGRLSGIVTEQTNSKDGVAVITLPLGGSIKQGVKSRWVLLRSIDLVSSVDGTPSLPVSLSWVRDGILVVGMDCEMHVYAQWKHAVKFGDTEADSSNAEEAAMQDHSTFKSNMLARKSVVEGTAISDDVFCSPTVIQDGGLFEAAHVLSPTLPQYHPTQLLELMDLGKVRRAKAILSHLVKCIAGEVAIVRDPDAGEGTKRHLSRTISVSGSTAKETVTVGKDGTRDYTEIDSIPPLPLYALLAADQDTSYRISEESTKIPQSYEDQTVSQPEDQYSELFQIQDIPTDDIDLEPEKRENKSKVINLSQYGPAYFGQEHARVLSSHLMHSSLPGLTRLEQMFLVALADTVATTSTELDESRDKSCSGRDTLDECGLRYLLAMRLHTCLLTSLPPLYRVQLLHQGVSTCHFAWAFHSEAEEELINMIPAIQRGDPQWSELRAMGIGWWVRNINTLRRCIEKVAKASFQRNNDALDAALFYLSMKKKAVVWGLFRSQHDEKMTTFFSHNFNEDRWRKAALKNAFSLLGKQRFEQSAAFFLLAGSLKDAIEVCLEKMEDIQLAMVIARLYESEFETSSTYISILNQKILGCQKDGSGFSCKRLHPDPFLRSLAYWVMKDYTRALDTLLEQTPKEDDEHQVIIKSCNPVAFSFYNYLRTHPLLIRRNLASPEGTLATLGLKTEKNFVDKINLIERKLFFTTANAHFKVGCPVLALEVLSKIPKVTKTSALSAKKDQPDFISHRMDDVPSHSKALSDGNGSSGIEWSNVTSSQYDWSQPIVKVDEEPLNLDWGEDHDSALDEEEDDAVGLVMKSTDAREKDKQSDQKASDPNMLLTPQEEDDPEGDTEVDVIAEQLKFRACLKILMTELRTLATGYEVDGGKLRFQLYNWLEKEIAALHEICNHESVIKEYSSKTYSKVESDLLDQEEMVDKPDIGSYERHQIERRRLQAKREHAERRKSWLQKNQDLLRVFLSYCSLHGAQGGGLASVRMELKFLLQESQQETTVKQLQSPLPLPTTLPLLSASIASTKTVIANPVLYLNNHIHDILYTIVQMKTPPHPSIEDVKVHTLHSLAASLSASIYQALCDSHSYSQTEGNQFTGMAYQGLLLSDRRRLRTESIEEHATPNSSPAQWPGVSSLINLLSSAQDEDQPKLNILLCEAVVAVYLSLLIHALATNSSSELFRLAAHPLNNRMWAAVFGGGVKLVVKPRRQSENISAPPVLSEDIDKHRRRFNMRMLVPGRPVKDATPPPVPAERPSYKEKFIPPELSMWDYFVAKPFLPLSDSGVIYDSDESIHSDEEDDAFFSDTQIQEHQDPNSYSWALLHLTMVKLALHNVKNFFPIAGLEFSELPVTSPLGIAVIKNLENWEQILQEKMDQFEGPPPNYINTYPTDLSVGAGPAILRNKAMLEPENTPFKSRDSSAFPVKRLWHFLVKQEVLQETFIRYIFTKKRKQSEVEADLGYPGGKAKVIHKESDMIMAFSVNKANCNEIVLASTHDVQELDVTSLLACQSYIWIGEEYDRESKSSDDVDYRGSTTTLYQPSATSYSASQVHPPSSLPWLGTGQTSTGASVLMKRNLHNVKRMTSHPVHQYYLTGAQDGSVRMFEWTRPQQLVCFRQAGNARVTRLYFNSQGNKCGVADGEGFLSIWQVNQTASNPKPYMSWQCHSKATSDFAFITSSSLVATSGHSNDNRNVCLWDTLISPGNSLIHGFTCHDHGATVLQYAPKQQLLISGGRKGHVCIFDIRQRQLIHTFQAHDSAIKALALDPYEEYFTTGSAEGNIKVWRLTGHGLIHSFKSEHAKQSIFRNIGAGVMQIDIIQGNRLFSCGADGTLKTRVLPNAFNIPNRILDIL
UniProt O00273: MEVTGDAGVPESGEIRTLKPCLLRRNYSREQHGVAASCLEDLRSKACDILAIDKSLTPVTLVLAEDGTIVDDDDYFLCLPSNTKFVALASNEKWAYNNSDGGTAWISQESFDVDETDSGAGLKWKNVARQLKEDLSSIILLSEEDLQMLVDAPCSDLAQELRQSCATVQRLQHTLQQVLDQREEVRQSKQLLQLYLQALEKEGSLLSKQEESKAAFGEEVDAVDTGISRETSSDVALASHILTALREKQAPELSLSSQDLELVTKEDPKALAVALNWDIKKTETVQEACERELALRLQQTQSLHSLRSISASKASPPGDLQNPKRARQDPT
UniProt Q8NEL9: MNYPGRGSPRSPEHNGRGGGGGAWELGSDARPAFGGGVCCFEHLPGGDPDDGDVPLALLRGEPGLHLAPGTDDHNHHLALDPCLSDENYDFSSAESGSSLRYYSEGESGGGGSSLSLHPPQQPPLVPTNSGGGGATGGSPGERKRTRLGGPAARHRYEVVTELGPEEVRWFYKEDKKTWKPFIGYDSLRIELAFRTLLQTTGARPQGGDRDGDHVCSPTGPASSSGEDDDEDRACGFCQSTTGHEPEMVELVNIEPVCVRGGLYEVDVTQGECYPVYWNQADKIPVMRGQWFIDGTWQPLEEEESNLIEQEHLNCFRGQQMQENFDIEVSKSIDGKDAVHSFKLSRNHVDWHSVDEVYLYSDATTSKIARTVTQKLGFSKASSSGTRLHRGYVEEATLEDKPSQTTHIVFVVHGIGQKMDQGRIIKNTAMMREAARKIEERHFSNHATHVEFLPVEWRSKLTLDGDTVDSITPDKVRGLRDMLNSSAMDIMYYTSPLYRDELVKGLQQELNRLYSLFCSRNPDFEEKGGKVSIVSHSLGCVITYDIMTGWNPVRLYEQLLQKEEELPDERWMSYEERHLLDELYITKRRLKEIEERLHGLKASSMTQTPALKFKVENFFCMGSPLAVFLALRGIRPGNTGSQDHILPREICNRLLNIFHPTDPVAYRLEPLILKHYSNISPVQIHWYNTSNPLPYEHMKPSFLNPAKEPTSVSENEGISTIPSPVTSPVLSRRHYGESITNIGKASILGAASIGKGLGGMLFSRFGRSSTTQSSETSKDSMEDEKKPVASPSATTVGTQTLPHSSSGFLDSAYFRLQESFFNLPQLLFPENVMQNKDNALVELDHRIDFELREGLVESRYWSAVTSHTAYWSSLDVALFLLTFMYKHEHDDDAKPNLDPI
UniProt Q6ICB0: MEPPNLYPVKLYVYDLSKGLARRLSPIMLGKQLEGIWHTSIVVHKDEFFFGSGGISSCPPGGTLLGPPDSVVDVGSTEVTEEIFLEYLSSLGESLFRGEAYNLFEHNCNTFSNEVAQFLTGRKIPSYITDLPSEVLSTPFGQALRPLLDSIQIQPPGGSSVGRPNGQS
UniProt Q96QB1: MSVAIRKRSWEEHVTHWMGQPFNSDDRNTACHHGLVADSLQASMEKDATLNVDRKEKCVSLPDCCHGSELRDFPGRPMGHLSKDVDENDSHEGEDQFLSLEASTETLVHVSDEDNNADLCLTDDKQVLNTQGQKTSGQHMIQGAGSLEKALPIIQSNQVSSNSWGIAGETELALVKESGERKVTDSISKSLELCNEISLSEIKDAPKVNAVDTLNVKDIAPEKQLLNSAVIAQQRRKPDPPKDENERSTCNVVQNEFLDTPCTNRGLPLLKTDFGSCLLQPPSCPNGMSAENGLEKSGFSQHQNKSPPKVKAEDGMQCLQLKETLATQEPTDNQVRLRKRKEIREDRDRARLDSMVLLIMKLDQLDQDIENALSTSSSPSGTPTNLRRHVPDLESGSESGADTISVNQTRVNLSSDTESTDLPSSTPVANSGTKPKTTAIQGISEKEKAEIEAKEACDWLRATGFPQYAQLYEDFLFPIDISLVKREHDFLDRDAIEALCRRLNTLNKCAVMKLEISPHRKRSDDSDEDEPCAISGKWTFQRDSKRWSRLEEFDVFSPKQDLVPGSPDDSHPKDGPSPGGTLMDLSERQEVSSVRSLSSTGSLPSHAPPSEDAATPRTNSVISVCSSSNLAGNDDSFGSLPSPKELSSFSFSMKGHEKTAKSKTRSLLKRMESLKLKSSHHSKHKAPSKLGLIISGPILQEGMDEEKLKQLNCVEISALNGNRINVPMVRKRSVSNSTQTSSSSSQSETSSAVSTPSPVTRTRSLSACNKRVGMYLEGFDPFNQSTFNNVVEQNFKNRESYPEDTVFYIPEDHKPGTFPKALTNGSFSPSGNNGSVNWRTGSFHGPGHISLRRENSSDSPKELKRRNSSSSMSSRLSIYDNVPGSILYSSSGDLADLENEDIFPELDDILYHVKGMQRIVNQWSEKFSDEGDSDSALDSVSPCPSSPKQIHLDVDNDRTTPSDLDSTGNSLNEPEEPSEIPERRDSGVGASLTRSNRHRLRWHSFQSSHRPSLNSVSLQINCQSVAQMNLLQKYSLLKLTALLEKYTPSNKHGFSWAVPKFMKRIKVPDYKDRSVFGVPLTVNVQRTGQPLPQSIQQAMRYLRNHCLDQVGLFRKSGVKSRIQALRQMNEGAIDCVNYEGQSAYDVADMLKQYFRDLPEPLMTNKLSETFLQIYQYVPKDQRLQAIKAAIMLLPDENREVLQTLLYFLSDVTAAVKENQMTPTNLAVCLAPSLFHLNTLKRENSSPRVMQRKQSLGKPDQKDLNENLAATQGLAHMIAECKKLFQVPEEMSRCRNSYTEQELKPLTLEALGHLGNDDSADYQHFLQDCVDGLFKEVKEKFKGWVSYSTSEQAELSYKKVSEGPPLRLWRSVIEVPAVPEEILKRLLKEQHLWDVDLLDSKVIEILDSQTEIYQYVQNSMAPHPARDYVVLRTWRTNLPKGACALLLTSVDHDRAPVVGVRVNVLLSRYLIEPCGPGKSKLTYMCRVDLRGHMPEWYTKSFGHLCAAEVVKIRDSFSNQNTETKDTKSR

[1] = compound: COc1cc2nc(-c3cc(F)ccc3O)nc(N[C@@H]3CNC[C@H]3C(C)(C)O)c2cc1OC
Procedure, shortened: as §1

lapatinib = compound: CS(=O)(=O)CCNCc1ccc(-c2ccc3ncnc(Nc4ccc(OCc5cccc(F)c5)c(Cl)c4)c3c2)o1 [lapatinib]
Procedure, shortened: as §1

filanesib = compound: CON(C)C(=O)N1N=C(c2cc(F)ccc2F)S[C@@]1(CCCN)c1ccccc1 [filanesib]
Procedure, shortened: as §1

zotarolimus = compound: CO[C@H]1C[C@@H]2CC[C@@H](C)[C@@](O)(O2)C(=O)C(=O)N2CCCC[C@H]2C(=O)O[C@H]([C@H](C)C[C@@H]2CC[C@H](n3cnnn3)[C@H](OC)C2)CC(=O)[C@H](C)/C=C(\C)[C@@H](O)[C@@H](OC)C(=O)[C@H](C)C[C@H](C)/C=C/C=C/C=C/1C [zotarolimus]
Procedure, shortened: as §1

alisertib = compound: COc1cc(Nc2ncc3c(n2)-c2ccc(Cl)cc2C(c2c(F)cccc2OC)=NC3)ccc1C(=O)O [alisertib]
Procedure, shortened: as §1

gefitinib = compound: COc1cc2ncnc(Nc3ccc(F)c(Cl)c3)c2cc1OCCCN1CCOCC1 [gefitinib]
Procedure, shortened: as §1

[2] = compound: COc1cccc2cc(-c3nc([C@H]4CC[C@H](C(=O)O)CC4)n4ncnc(N)c34)[nH]c12
Procedure, shortened: as §1

pictilisib = compound: CS(=O)(=O)N1CCN(Cc2cc3nc(-c4cccc5[nH]ncc45)nc(N4CCOCC4)c3s2)CC1 [pictilisib]
Procedure, shortened: as §1

[3] = compound: COC1=CC=C(C=C1)CN2C=CC3=C2C=C(C=C3)C(=O)NO
Procedure, shortened: as §1

Measured: log2 fold change

DEF8 (UniProt Q6ZN54)
inactive: idasanutlin -0.04 | [1] -0.146 | lapatinib 0.174

DDX41 (UniProt Q9UJV9)
inactive: filanesib -0.007 | zotarolimus -0.016 | idasanutlin 0.025 | alisertib -0.012 | [1] -0.094 | gefitinib -0.026 | [2] 0.075 | lapatinib -0.141 | pictilisib 0.051

DLK1 (UniProt P80370)
inactive: [3] -0.021 | zotarolimus -0.095

DMXL2 isoform 3 (UniProt Q8TDJ6)
inactive: filanesib 0.045 | zotarolimus -0.178 | idasanutlin 0.011 | pictilisib 0.239

DDX28 (UniProt Q9NUL7)
inactive: zotarolimus -0.104

DFFA isoform 2 (UniProt O00273)
inactive: [3] 0.079 | alisertib -0.047 | gefitinib -0.082 | [2] 0.139

DHRSX (UniProt Q8N5I4)
inactive: [3] 0.024 | zotarolimus 0.02 | idasanutlin 0.018 | alisertib 0.002 | gefitinib 0.065 | [2] 0.114 | pictilisib -0.027

DDHD1 (UniProt Q8NEL9)
inactive: [3] 0.115 | filanesib -0.057 | [1] 0.225 | lapatinib -0.091 | pictilisib 0.103

DDX46, A0A0C4DG89
inactive: alisertib -0.083 | gefitinib 0.261 | [2] 0.032

DECR1 (UniProt E5RJD2)
inactive: alisertib -0.065 | [1] 0.113 | gefitinib 0.094 | [2] 0.193 | lapatinib -0.071 | pictilisib 0.123

DET1 isoform 2 (UniProt Q7L5Y6)
inactive: [3] -0.076 | zotarolimus 0.01 | alisertib 0.001 | [1] -0.165 | [2] -0.008 | lapatinib 0.044

DENND10 (UniProt Q8TCE6)
inactive: filanesib -0.133 | zotarolimus -0.017 | idasanutlin 0.003 | alisertib -0.065 | [1] 0.114 | gefitinib 0.1 | [2] -0.05 | lapatinib -0.021

DNA2 (UniProt P51530)
inactive: [3] -0.061 | filanesib -0.103 | [1] 0.192 | gefitinib 0.26 | lapatinib -0.011 | pictilisib 0.056

DENND1C (UniProt Q8IV53)
inactive: filanesib -0.088

DDB1 isoform 2 (UniProt Q16531)
inactive: filanesib 0.077 | pictilisib 0.094

DMBT1 isoform 6 (UniProt Q9UGM3)
inactive: filanesib -0.074 | alisertib 1.09 | gefitinib 0.862 | [2] -0.14

DIEXF (UniProt Q68CQ4)
inactive: zotarolimus 0.091

DESI1 (UniProt Q6ICB0)
inactive: zotarolimus 0.166 | idasanutlin 0.213 | [1] 0.046 | lapatinib -0.002

DENND1A isoform 6 (UniProt Q8TEH3)
inactive: [3] 0.154 | [1] -0.18 | lapatinib 0.06

DKK4 (UniProt Q9UBT3)
inactive: pictilisib -1.82

DDX25 (UniProt Q9UHL0)
inactive: [3] 0.037 | zotarolimus 0.402 | idasanutlin -0.041 | alisertib -0.327 | [1] -0.12 | gefitinib -0.076 | [2] -0.266 | lapatinib 0.244

DEGS1 (UniProt O15121)
inactive: filanesib -0.048 | zotarolimus 0.027 | idasanutlin 0.039 | alisertib 0.028 | [1] -0.013 | gefitinib -0.002 | [2] -0.018 | lapatinib -0.034 | pictilisib 0

Pulled one by one from the entries so far (two):
DKK4 (UniProt Q9UBT3)
inactive: pictilisib -1.82

DDX25 (UniProt Q9UHL0)
inactive: [3] 0.037 | zotarolimus 0.402 | idasanutlin -0.041 | alisertib -0.327 | [1] -0.12 | gefitinib -0.076 | [2] -0.266 | lapatinib 0.244

(continued)

DDR1 isoform 5 (UniProt Q08345)
inactive: [3] -0.047 | zotarolimus 0.115 | pictilisib 0.24

DDX11L8 (UniProt A8MPP1)
inactive: zotarolimus 0.136 | [1] 0.018 | lapatinib 0.03

DDX52 (UniProt Q9Y2R4)
inactive: [3] -0.127 | zotarolimus -0.035

DLC1 (UniProt Q96QB1)
inactive: [3] -0.619 | alisertib -0.159 | gefitinib 0 | [2] 0.038 | pictilisib 0.259

DMTF1 (UniProt Q9Y222)
inactive: filanesib -0.051 | zotarolimus -0.316 | idasanutlin -0.009 | [1] -0.125 | lapatinib 0.039 | pictilisib 0.197

DHX35 (UniProt Q9H5Z1)
inactive: gefitinib 0.012

DDAH1 (UniProt O94760)
inactive: zotarolimus -0.024 | idasanutlin -0.093 | alisertib -0.007 | [1] -0.025 | gefitinib -0.045 | [2] 0.065 | lapatinib -0.01 | pictilisib -0.027

DERPC (UniProt P0CG12)
inactive: [3] -0.016 | alisertib 0.021 | gefitinib 0.099 | [2] 0.086 | pictilisib -0.107

DHPS (UniProt M0R1T2)
inactive: filanesib -0.057

DICER1 (UniProt Q9UPY3)
inactive: filanesib 0.071 | zotarolimus -0.066 | idasanutlin 0.148 | alisertib 0.767 | [1] 0.03 | gefitinib 0.063 | [2] 0.049 | lapatinib -0.115 | pictilisib 0.04

DHX37 (UniProt Q8IY37)
inactive: idasanutlin 0.017

DDX55 (UniProt Q8NHQ9)
inactive: filanesib 0.184

DMKN (UniProt Q6E0U4)
inactive: alisertib 0.815 | [1] 0.133 | gefitinib 0.112 | [2] -0.196 | lapatinib 0.044

Reference: the supplement of paper PMC10849652
